Measured values as given in publication PMC3149277.
Where two headings read alike, the source gives them in different places. Results are given in words; binding and its absence hold for the method and conditions named. Binding seen in cells or lysates may run through a third protein. Some binding calls cover weakened binding; strength is not graded here. Where a sequence is shown, tags or fusion partners need not be part of it.

The chains behind the UniProt entries cited, without tags or fusion partners. Residues count along the entry.
UniProt P01132, residues 29-1217: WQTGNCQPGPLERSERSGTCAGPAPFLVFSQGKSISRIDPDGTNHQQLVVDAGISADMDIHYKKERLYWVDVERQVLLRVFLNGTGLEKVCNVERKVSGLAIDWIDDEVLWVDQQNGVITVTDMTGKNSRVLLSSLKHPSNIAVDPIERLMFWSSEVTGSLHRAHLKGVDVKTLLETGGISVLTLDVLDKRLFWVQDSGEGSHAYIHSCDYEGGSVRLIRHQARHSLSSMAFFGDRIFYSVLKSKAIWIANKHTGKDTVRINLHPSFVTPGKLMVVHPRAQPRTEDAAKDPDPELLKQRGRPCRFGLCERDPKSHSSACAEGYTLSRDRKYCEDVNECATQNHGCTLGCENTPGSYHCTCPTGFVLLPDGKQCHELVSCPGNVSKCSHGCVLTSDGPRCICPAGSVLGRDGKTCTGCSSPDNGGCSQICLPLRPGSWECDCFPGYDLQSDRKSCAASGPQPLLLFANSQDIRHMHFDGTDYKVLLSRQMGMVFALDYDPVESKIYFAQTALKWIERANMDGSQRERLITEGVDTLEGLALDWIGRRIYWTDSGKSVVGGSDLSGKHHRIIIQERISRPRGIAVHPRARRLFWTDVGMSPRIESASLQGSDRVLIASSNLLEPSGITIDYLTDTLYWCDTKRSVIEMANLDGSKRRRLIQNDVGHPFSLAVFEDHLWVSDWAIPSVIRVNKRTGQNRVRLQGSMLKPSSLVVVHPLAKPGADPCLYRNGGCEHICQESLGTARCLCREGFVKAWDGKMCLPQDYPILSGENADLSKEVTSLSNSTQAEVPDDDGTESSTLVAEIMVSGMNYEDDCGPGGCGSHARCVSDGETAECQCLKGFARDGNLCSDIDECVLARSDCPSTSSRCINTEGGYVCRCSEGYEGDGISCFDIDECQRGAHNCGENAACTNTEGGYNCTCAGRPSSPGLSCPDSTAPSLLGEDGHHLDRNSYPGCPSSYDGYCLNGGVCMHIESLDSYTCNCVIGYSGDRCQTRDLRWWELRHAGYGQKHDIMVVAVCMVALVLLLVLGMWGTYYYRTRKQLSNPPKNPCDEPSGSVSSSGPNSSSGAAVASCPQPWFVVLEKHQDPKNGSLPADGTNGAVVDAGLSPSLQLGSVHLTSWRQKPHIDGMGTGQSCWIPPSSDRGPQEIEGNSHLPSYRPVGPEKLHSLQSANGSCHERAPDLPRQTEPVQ

T1: human iRhom1 (Rhbdf1), C-terminal triple HA tag (human) (UniProt Q96CC6)
T1 sequence: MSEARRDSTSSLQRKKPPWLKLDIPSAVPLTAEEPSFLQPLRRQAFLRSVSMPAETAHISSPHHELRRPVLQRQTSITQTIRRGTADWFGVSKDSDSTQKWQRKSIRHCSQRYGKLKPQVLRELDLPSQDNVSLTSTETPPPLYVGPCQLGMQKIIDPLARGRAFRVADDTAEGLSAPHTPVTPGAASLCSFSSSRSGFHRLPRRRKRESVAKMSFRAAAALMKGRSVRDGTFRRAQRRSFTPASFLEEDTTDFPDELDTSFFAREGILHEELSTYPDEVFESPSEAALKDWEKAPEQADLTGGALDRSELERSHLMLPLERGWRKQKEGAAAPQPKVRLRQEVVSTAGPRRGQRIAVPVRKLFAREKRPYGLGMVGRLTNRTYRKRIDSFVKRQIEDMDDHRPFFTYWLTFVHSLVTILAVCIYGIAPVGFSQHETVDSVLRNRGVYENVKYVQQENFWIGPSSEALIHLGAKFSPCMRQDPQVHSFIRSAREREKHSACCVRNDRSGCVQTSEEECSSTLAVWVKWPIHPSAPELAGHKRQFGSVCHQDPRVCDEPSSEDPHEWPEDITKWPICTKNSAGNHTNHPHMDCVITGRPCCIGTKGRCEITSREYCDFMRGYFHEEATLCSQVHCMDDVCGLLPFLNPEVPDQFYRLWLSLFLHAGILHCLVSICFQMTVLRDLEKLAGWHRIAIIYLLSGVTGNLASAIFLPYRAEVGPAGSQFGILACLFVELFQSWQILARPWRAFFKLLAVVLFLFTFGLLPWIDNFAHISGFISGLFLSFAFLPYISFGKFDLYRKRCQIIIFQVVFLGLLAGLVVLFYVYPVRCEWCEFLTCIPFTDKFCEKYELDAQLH

T2: mouse iRhom2 (Rhbdf2), C-terminal triple HA tag (mouse) (UniProt Q80WQ6)
T2 sequence: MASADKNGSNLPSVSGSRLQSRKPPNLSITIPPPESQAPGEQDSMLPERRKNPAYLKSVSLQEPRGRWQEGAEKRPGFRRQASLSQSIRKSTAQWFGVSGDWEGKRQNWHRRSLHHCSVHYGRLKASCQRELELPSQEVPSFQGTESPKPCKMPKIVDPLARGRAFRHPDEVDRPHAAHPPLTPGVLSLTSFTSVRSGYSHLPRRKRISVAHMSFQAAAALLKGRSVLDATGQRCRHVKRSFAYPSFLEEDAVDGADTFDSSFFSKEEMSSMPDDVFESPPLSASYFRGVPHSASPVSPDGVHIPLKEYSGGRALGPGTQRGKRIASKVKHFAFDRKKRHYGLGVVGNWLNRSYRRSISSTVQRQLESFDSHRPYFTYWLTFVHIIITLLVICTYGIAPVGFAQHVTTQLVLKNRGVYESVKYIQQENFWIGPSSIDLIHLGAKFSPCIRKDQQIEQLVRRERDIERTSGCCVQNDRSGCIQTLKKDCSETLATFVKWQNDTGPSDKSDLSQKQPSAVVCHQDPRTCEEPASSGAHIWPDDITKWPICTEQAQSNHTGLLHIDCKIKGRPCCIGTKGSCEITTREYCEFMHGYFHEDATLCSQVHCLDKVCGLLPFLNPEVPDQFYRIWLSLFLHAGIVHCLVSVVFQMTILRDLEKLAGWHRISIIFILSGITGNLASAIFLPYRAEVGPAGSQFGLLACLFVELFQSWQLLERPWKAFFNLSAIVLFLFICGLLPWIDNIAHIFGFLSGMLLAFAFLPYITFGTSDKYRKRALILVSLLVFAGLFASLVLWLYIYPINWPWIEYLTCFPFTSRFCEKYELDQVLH


What was measured:
Assay in all cases: co-IP; HA-tagged iRhoms and FLAG-tagged proteins coexpressed in HEK293 ET cells; lysis in 1% Triton X-100, 150 mM NaCl, 50 mM Tris-HCl pH 7.4; iRhoms immunoprecipitated with anti-HA affinity gel, 1 h at 4°C; washes with 300 mM NaCl; FLAG-tagged co-precipitated proteins detected by Western blot
[1] = target: T1, human iRhom1 (Rhbdf1), C-terminal triple HA tag (human)
[2] = target: T2, mouse iRhom2 (Rhbdf2), C-terminal triple HA tag (mouse)
[3] = target: T1, human iRhom1 (Rhbdf1), C-terminal triple HA tag (human); remark: listed apart in the source
[4] = target: T2, mouse iRhom2 (Rhbdf2), C-terminal triple HA tag (mouse); remark: listed apart in the source

binding [1] | binding [2] | binding [3] | binding [4] | Molecule
binds | binds | – | – | Flag-tagged mouse EGF (from UniProt P01132 29-1217)
– | – | no binding | no binding | Flag-tagged human prolactin (protein, UniProt P01236 29-227) LPICPGGAARCQVTLRDLFDRAVVLSHYIHNLSSEMFSEFDKRYTHGRGFITKAINSCHTSSLATPEDKEQAQQMNQKDFLSLIVSILRSWNEPLYHLVTEVRGMQEAPEAILSKAVEIEEQTKRLLEGMELIVSQVHPETKENEIYPVWSGLPSLQMADEESRLSAYYNLLHCLRRDSHKIDNYLKLLKCRIIHNNNC
